In the supplement of paper PMC10849652 one finds log2 fold change data, which are given here for five targets.

Chains of the proteins cited; added tags and fusions are not shown. Lines headed by an entry give the natural chain unless they say otherwise; changes in a name come on top.
UniProt P10644, whole entry, looked up: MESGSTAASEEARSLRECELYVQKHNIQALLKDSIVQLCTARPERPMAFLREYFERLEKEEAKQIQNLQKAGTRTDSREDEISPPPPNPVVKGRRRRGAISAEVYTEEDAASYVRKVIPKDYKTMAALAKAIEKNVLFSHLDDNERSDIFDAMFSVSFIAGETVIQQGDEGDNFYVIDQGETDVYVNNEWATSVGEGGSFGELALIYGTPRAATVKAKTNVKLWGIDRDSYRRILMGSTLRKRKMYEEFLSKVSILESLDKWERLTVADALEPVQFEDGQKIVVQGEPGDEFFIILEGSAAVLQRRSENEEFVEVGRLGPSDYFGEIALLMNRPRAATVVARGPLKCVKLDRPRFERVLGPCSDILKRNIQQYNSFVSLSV
UniProt O14974: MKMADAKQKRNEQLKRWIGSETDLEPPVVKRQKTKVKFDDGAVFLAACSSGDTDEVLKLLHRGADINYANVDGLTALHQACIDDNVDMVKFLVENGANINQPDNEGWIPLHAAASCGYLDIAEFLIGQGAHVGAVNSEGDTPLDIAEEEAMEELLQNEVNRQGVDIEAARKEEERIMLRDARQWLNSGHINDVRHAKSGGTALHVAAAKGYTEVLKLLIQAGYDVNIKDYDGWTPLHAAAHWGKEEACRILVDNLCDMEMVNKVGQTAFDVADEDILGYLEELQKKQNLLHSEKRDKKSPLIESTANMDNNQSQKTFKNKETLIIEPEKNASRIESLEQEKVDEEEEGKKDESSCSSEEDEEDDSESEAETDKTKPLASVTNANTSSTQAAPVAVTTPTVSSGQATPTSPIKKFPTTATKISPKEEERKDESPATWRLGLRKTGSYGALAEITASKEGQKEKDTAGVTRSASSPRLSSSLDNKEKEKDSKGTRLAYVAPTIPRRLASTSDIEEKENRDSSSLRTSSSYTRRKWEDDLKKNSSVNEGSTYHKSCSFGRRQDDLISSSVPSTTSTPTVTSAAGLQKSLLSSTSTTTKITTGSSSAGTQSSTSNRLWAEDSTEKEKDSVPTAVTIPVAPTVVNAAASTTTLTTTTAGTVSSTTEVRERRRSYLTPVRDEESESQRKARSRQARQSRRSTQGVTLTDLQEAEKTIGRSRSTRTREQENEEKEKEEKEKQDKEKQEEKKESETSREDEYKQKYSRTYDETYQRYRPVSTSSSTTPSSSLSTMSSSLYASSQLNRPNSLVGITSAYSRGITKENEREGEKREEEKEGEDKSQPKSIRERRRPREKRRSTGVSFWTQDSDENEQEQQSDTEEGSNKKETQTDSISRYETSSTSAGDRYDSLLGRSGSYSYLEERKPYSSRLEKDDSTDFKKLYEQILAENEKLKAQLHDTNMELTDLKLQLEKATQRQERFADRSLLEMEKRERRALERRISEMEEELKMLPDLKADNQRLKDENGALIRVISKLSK
UniProt Q9BSG0: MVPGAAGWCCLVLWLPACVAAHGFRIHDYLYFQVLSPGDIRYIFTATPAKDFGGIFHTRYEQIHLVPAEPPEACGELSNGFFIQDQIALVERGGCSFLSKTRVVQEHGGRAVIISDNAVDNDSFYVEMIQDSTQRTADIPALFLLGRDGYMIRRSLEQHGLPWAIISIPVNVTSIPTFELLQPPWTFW

What all share (test): log2 fold change, soluble protein after heating vs DMSO (PISA); higher = thermal stabilisation; K562 cells, 10 uM, 30 min; active = over 0.2 and 3.5 SD of the protein, either way, in both replicates (recomputed)
Compound in assay [1]: CC[C@@H]1C(=O)N(C)c2cnc(Nc3ccc(C(=O)NC4CCN(C)CC4)cc3OC)nc2N1C1CCCC1
Put shortly: (§1)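 For each measurement, 10 μM compound was applied for 30 min to K562 cells at 2×10^6 cells/mL. Aliquots were heated for 3 min across 48°C-58°C, pooled, and extracted in PBS with 0.5% NP-40 at 4°C; the supernatant after 21,000xg for 90 min was soluble protein. This was quantified by TMTpro 16plex LC-MS/MS with channel sums equalised, and thermal stability was reported relative to control samples from duplicates, on a log2 fold-change scale.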

Compound in assay [2]: CC[C@H](C)N1C=C(C2=C(C=C(C=C21)C3=CN=C(C=C3)N4CCNCC4)C(=O)NCC5=C(C=C(NC5=O)C)C)C
Put shortly: as §1

Compound in the next assay: CC[C@H](C)[C@@H](C(=O)N[C@@H]([C@@H](C)O)C(=O)N[C@@H](CC(C)C)C(=O)[C@]1(CO1)C)NC(=O)[C@H]([C@@H](C)CC)N(C)C(=O)C [epoxomicin]
In outline: as §1

Compound in assay [3]: CCn1cc(-c2ccnc3[nH]c(-c4cccc(CN(C)C)c4)cc23)c(-c2ccc(NC(=O)N(C)C)cc2)n1
In outline: as §1

Compound in assay [4]: CN(C)CC(=O)Nc1ccc2[nH]c(=O)c3ccccc3c2c1
Put shortly:
as §1

Compound in assay [5]: CN1C2=C(C3=C1C(=O)N(N=C3)CC4=CC(=CC=C4)N)SC(=C2)S(=O)C
Put shortly:
as §1

Compound in assay [6]: CN1CCC(CNc2ccc3ncc(-c4cccc(OC(F)(F)F)c4)n3n2)CC1
Put shortly: as §1

Compound in another assay: CN1CCN(CCOc2cc(OC3CCOCC3)c3c(Nc4c(Cl)ccc5c4OCO5)ncnc3c2)CC1 [saracatinib]
In outline: as §1

Compound in another assay: CN1CCN(c2nc(C3=C(c4c[nH]c5ccccc45)C(=O)NC3=O)c3ccccc3n2)CC1 [sotrastaurin]
Put shortly: as §1

Compound in the next assay: CN1CCc2c(c3ccccc3n2Cc2ccc(C(=O)NO)cc2)C1 [Tubastatin A]
Put shortly: as §1

Compound in assay [7]: CNC(=O)C1=CC=CC=C1NC2=NC(=NC=C2Cl)NC3=C(C=C(C=C3)N4CCOCC4)OC
Put shortly: as §1

Compound in the next assay: CNC(=O)c1ccc(Nc2ncc(C(F)(F)F)c(NCc3nccnc3N(C)S(C)(=O)=O)n2)cc1 [defactinib]
Put shortly: as §1

Compound in another assay: CNCc1ccc(-c2[nH]c3cc(F)cc4c3c2CCNC4=O)cc1 [rucaparib]
In outline: as §1

Compound in assay [8]: CNc1nc(-c2ccc3c(N)n[nH]c3c2)cc(N2C[C@@H](C(=O)NC3CCCCC3)CC[C@H]2C)n1
Put shortly:
as §1

Compound in another assay: COC(=O)N[C@@H](C)CNc1nccc(-c2cn(C(C)C)nc2-c2cc(Cl)cc(NS(C)(=O)=O)c2F)n1 [encorafenib]
Put shortly: as §1

Compound in assay [9]: COC(=O)[C@H](CCSC)NC(=O)C1=C(C=C(C=C1)NC[C@H](CS)N)C2=CC=CC=C2
Put shortly: as §1

Compound in the next assay: CN1CC[C@H](c2c(O)cc(O)c3c(=O)cc(-c4ccccc4Cl)oc23)[C@H](O)C1 [alvocidib]
In outline: as §1

Compound in a further assay: CC[C@@H]1C(=O)N(C)c2cnc(Nc3ccc(C(=O)N[C@H]4CC[C@H](N5CCN(CC6CC6)CC5)CC4)cc3OC)nc2N1C(C)C [volasertib]
Put shortly: as §1

Some of the results follow.

Take PRG4 (UniProt Q92954): the log2 fold change in assay [1] was inactive: 0.073; in assay [2], inactive: -0.18; with epoxomicin it was inactive: -0.294; in [3], inactive: 0.075; in [4], inactive: -0.239; in assay [5] it was inactive: 0.015. Moreover, the log2 fold change is inactive: -0.228 in assay [6]; inactive: 0.008 with saracatinib; inactive: 0.136 with sotrastaurin; inactive: 0.004 with Tubastatin A; inactive: 0.14 in assay [7]; inactive: 0.055 with defactinib. Besides, the log2 fold change with rucaparib was inactive: -0.072; in assay [8] it was inactive: 0.031; with encorafenib, inactive: 0.001; in [9], inactive: -0.109.

Consider PROSER3, A0A2R8Y8D9, for which the log2 fold change is inactive: -0.117 in assay [1]; inactive: -0.095 with epoxomicin; inactive: -0.081 in assay [5]; inactive: 0.005 with saracatinib; inactive: -0.06 with sotrastaurin; inactive: -0.069 with alvocidib. In addition, the log2 fold change was inactive: -0.037 in the assay with Tubastatin A, inactive: 0.081 in the assay with rucaparib, inactive: -0.15 in assay [8] and inactive: 0.118 with encorafenib.

PRKAR1A (UniProt P10644): the log2 fold change in [1] is inactive: 0.213; in the assay with volasertib, inactive: -0.054; in assay [2], inactive: -0.068; with epoxomicin it was inactive: -0.122; in assay [3] it was inactive: 0.001; in assay [4], inactive: 0.023. In addition, the log2 fold change in assay [5] was inactive: 0.132; in [6], active: 0.705; with saracatinib it was inactive: -0.067; in the assay with sotrastaurin, inactive: 0.105; with Tubastatin A, inactive: 0.007; in assay [7], inactive: 0.366. For the same target, the log2 fold change is inactive: 0.14 with defactinib; inactive: 0.13 in the assay with rucaparib; inactive: 0.005 in [8]; inactive: 0.073 in the assay with encorafenib; inactive: -0.069 in [9].

Regarding PPP1R12A (UniProt O14974), the log2 fold change was inactive: -0.136 in assay [1]; active: -0.468 with volasertib; inactive: 0.066 in [2]; inactive: 0.067 with epoxomicin; inactive: -0.229 in assay [3]; inactive: 0 in [4]. Moreover, the log2 fold change in assay [5] is inactive: -0.016; in assay [6], active: -0.536; in the assay with saracatinib, inactive: -0.048; in the assay with sotrastaurin, inactive: -0.054; in the assay with Tubastatin A, inactive: 0.01; in assay [7] it was inactive: -0.052. Further, the log2 fold change was inactive: -0.187 with defactinib; inactive: -0.012 in the assay with rucaparib; inactive: -0.197 in assay [8]; inactive: 0.057 with encorafenib; inactive: -0.043 in assay [9].

With PRADC1 (UniProt Q9BSG0), the log2 fold change in assay [1] was inactive: -0.32; with epoxomicin, inactive: -0.065; in assay [3], inactive: 0.018; in assay [4] it was inactive: -0.027; in assay [5], inactive: 0; in [6] it was inactive: 0.139. Moreover, the log2 fold change with saracatinib was inactive: -0.221; with sotrastaurin it was inactive: 0.028; with alvocidib, inactive: -0.131; with Tubastatin A, inactive: -0.091; in the assay with defactinib, inactive: 0.203; in the assay with rucaparib it was inactive: 0.044. Also, the log2 fold change was inactive: 0.22 in assay [8], inactive: -0.097 with encorafenib and inactive: 0.034 in assay [9].
